Source: PMC12594589
Results are given in words; binding and its absence hold for the method and conditions named. In cells and extracts the contact can be indirect. Some binding calls cover weakened binding; strength is not graded here.

Amino acid sequences for entries named in this document (tags omitted).
UniProt P16989: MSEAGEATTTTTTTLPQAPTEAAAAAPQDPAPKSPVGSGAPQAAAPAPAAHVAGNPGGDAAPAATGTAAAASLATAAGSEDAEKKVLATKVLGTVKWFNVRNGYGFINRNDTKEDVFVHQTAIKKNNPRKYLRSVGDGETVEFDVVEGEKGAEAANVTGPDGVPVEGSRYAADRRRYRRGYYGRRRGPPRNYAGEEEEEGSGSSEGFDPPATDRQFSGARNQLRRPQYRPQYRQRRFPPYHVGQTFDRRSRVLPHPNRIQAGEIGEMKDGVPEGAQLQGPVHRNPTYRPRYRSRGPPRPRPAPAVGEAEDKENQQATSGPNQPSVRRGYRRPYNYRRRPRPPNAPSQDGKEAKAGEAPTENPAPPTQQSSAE

Target: Flag-YBX3 (wild type, full length) (UniProt P16989)
Assay: co-IP; co-IP of TTC36 with FLAG-tagged full-length or truncated YBX3 constructs (#1, #2, #3); cells not given

- binding: binds
B1: TTC36 (as used in the co-IP with YBX3 truncation mutants) (protein, UniProt A6NLP5 1-189)
chain: MGTPNDQAVLQAIFNPDTPFGDIVGLDLGEEAEKEEREEDEVFPQAQLEQSKALELQGVMAAEAGDLSTALERFGQAICLLPERASAYNNRAQARRLQGDVAGALEDLERAVELSGGRGRAARQSFVQRGLLARLQGRDDDARRDFERAARLGSPFARRQLVLLNPYAALCNRMLADMMGQLRRPRDSR
